Results of single-concentration screens

The chains behind the UniProt entries cited, without tags or fusion partners. Residues count along the entry.
UniProt A4I591, 1-473: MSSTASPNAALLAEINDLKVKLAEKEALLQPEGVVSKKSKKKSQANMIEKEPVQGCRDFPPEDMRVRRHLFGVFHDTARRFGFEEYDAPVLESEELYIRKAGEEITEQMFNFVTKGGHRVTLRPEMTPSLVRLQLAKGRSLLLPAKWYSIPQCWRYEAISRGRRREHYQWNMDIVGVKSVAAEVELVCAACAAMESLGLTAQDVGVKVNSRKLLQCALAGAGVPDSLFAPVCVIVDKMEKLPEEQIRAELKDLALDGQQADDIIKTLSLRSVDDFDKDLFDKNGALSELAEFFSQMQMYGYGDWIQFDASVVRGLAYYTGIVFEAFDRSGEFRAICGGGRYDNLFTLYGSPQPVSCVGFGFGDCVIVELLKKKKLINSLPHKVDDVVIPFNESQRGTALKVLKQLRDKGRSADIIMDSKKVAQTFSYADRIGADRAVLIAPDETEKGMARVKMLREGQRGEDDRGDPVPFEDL
UniProt I6X8D2, whole entry: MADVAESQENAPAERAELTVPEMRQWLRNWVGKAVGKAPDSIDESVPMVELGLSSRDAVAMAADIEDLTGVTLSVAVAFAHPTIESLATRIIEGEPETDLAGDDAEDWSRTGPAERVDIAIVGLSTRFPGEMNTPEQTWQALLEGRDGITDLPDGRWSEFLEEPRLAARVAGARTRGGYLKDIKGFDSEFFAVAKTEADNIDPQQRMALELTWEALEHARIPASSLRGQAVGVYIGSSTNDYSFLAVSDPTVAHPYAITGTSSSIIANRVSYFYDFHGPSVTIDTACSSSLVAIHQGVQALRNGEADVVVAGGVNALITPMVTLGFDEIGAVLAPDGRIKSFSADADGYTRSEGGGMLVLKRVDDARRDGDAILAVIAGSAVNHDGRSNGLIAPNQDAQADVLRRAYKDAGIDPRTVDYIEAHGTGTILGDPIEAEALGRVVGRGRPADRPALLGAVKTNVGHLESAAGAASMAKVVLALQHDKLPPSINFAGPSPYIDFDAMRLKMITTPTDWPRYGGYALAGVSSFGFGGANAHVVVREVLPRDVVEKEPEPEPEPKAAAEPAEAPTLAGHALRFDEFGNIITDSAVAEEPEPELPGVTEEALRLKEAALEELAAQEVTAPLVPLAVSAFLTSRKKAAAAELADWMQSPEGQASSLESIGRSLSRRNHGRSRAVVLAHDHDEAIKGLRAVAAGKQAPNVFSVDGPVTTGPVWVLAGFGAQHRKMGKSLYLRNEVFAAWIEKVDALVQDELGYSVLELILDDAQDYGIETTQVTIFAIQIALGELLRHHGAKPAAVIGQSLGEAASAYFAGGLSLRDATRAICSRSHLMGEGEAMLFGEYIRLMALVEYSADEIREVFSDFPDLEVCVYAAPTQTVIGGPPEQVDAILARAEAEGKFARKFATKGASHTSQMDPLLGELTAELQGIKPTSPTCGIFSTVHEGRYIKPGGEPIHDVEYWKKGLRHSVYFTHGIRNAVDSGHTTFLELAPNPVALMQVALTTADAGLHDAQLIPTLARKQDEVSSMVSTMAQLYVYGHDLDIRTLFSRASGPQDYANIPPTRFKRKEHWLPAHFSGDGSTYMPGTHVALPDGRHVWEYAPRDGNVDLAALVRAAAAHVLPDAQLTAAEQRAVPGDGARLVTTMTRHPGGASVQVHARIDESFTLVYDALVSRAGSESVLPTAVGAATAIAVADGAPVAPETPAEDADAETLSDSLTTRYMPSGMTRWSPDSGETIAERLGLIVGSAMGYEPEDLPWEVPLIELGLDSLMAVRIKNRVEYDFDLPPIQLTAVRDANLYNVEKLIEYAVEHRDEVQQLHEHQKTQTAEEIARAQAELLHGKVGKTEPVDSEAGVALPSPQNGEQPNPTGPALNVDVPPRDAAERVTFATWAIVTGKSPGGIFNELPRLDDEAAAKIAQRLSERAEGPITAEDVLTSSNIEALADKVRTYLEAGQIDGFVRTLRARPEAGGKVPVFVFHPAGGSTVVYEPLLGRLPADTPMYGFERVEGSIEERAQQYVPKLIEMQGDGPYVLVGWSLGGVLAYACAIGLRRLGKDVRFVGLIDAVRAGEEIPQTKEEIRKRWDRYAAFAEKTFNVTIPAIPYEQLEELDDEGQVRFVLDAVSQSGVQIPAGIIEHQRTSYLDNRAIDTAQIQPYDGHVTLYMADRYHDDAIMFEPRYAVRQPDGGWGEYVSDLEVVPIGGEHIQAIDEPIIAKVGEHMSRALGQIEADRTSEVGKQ
UniProt P9WFT3, whole entry: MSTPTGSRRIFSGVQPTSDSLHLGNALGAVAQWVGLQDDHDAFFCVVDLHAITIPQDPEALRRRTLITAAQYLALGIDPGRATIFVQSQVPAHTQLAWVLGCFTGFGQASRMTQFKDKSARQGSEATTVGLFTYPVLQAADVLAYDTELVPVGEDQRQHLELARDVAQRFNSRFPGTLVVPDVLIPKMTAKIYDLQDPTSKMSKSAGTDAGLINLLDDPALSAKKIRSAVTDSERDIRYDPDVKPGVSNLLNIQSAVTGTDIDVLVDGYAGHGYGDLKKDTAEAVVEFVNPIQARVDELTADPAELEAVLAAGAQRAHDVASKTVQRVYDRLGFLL
UniProt Q4DA54, 1-478: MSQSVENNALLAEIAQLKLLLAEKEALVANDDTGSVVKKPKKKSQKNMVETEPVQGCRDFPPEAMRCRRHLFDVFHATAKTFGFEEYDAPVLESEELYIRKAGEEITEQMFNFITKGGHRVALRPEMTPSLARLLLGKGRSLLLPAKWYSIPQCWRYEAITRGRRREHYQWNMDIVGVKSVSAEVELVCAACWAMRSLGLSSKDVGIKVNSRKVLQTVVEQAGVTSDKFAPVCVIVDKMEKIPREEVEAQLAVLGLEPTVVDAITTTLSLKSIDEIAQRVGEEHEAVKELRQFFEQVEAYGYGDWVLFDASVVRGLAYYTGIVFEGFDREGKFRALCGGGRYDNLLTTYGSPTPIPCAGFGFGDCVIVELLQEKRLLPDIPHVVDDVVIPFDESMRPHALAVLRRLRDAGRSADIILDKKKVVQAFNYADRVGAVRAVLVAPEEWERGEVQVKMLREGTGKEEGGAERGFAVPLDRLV

From ChEMBL document CHEMBL3988442, “University of Dundee, Small-Polar-MMV Screening Library” (2021).

Values are the deposited “Percent Effect”, in %.
The record does not define 0% and 100%; most values in the screen are far below 50% and negative numbers occur (in some assays of this library far below -100).
This is an unselected part of the compounds tested.
A dash means the value is not listed here; it may have been measured.

A: 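Histidine-tRNA ligase, Leishmania infantum (UniProt A4I591). Enzyme assay of histidyl-tRNA synthetase; the read-out is not stated. Tested at 30 µM. The record gives no direction; compounds that gave an IC50 in retests scored well above the rest, so higher reads as stronger inhibition. The assay is labelled LdHisRS but filed under L. infantum. Size under these conditions: about 69,000 compounds, about 410 of them at 50% or above in at least one test.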
B: 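Polyketide synthase Pks13, Mycobacterium tuberculosis (UniProt I6X8D2). Enzyme assay of the thioesterase domain of polyketide synthase 13; the read-out is not stated. Compounds at 30 µM. Higher reads as stronger inhibition (inferred from which compounds were picked for retests). Size under these conditions: about 67,000 compounds, about 300 of them at 50% or above in at least one test.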
C: 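Tryptophan-tRNA ligase, Mycobacterium tuberculosis (UniProt P9WFT3). Enzyme assay of tryptophanyl-tRNA synthetase; the read-out is not stated. Concentration: 10 µM. Direction is not recorded; retested compounds ran higher, which suggests that high means inhibition. Of about 65,000 compounds tested this way, about 64 (0.098%) reached 50% or more in at least one test.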
D: 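Enzyme assay of histidyl-tRNA synthetase; the read-out is not stated. Target: Histidine-tRNA ligase, Trypanosoma cruzi CL Brener (UniProt Q4DA54). Compounds at 30 µM. Direction is inferred from retests: higher values go with stronger inhibition. Of about 69,000 compounds tested this way, about 31 (0.045%) reached 50% or more in at least one test.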

SMILES	A	B	C	D
Cc1nn(C)cc1-c1ccnc(N(C)Cc2noc(C(C)C)n2)n1	21.13	-17.1	-0.9828	8.287
COCC(=O)NC[C@H]1OC[C@@H](NC2CCC(F)(F)CC2)[C@@H]1O	14.86	-18.35	-0.6829	9.783
NC(=O)CCN1CCC(C(=O)c2cc(F)ccc2F)CC1	11.43	-24.36	2.225	-1.087
O=C1C(n2nnc(-c3ccsc3)n2)CCN1CC(F)(F)F (stereo not given)	21.52	-31.33	2.091	4.741
CCSc1ccc(C(=O)N2CCC3(CCC(=O)N(C)C3)CC2)s1	2.797	-	-4.072	10.45
Cc1nc(C)c(C(=O)N2CCc3nnc(C4CCCCN4C)n3CC2)s1 (stereo not given)	14.77	6.274	-6.914	0.8571
Cc1nc(CN(C)C2CCCN(Cc3noc(C4CC4)n3)C2)oc1C (stereo not given)	9.649	-15.62	7.366	-0.578
CNC(=O)c1cnc(/C=C/c2cc(OC)c(OC)c(OC)c2)s1	13.46	17.93	8.068	-3.743
Cc1noc(C)c1CC(=O)OCC(=O)N1CCc2sccc2C1	28.38	-8.182	2.956	1.887
Cc1nn(C)c2cnn(C(C)C(=O)NCc3cccnc3)c12 (stereo not given)	17.48	-23.62	-4.824	3.825
CC(O)(CNC(=O)c1c(F)cccc1Cl)c1ccco1 (stereo not given)	30.77	-2.938	-1.765	-2.41
CC1(c2nccs2)CCN(C(=O)CC2CCOCC2)CC1	12.68	6.038	6.464	6.818
Cn1nc(CNC(=O)CC#N)c2c1CN(C(N)=O)CC2	21.37	-0.6814	14.88	2.674
CCN(Cc1cnn(CC)c1)C(=O)Cn1c(=O)ccc2ccccc21	8.901	-11.95	-6.262	4.813
O=C(Nc1ccc(-n2ccc(C(=O)O)n2)cc1)c1ccccc1	6.667	1.32	-1.162	4.762
Cc1ccc(CC(=O)N2CCN(CC(O)c3ccccc3)CC2)cn1 (stereo not given)	16.8	-	3.931	1.141
COC1CN(C(=O)COC(C)=O)CCC(=O)N(C)c2ccccc21 (stereo not given)	22.45	5.496	-	11.24
CN(Cc1ccc2c(c1)OCO2)C(=O)c1ccc(=O)n(C)c1	5.333	-6.331	-5.513	8.152
C=C(C)COc1cccc(C(=O)N2CCC3(CC2)CN(C)CCN3C)c1	15.38	-29.8	-2.594	5.747
Cc1cnc(N2CCOC3(CCCN(c4ncccn4)C3)C2)nc1 (stereo not given)	14.53	-10.54	-2.327	5.882
N[C@H]1CN(C(=O)CCc2ccccn2)C[C@@H]1c1ccccc1	10.67	-45.32	-4.352	1.63
O=C1Nc2ccccc2CN(CC2CC2)C12CCNC2 (stereo not given)	9.655	-23.09	-4.754	5.325
CNC(=O)[C@@H]1CN(C(=O)COC)C[C@H]1c1ccnc(N2CCCC2)n1	17.45	6.708	-5.154	3.143
CCCSCC(=O)N1CCN(c2ccc(C)cc2)CC1C (stereo not given)	12.28	-30.38	-11.73	-1.093
Cc1ccc(N2CCCN(C(=O)C(C(C)C)n3cncn3)CC2)nn1 (stereo not given)	24.62	-4.412	0.2915	1.149
O=S(=O)(C1CC1)N1C[C@@H]2CN(Cc3cccs3)CCO[C@@H]2C1	10.26	3.927	10.56	1.227
Cc1cn2nc(N3CCCC3Cn3cccn3)sc2n1 (stereo not given)	15.38	-17.93	2.442	3.704
Cc1cc(-c2cnn(CCNC(=O)c3cccnc3)c2C2CC2)on1	13.89	-34.2	2.926	0.5405
CC(C)CCN1CCc2c(C(=O)N(C)Cc3ccccn3)nn(C)c2C1	15.38	-21.38	-0.0969	7.362
COc1c(CNCc2ccccc2Cn2cccn2)c(C)nn1C	5.556	-17.43	-3.402	-2.041
CC(C)=CCS(=O)(=O)Cc1ccn(-c2cccc(F)c2)n1	6.494	-34.76	-3.816	2.463
COc1ccc(Nc2nc3c(C)nn(C)c3c(=O)n2C)c(C)c1	8.85	-20.98	2.151	-1.754
Cc1ncccc1CNCC1CCN(CC(C)O)CC1 (stereo not given)	9.565	-1.547	-4.728	2.254
COc1cnc(CSc2nnc(C)s2)cc1OCC(N)=O	10.53	1.442	5.93	4.878
CS(=O)(=O)N1CCO[C@@H]2CN(C(=O)N3CCCC3)CC[C@@H]2C1	13.51	-0.5293	-	5.525
CC(=O)OC1CN(c2nc3c(Cl)cccc3s2)C1	9.756	-1.579	0.4454	8.173
CCn1cc(CN2CCN(Cc3cc(C)cc(C)c3)C(=O)C2)cc1C#N	17.2	-29.29	2.564	7.407

For reference, 2 entries once more:

SMILES	A	B	C	D
Cc1ccc(CC(=O)N2CCN(CC(O)c3ccccc3)CC2)cn1 (stereo not given)	16.8	-	3.931	1.141
CCN(Cc1cnn(CC)c1)C(=O)Cn1c(=O)ccc2ccccc21	8.901	-11.95	-6.262	4.813